Test results as given in patent publication US20090258013A1.
No constants are given. Whether binding was seen depends on the method and setting. Some binding calls cover weakened binding; strength is not graded here.

Columns and labels:
[1] = biological target: human TIGIT (gD-tagged) on the surface of stable 293-TIGIT cells (human); test: flow cytometry on 293-TIGIT cells
[2] = biological target: human TIGIT (gD-tagged) on the surface of stable 293-TIGIT cells (human); test: flow cytometry, 10A7 on stable 293-TIGIT cells, without PVR-Fc

binding [1]: binds
binding [2]: binds
B1: anti-TIGIT antibody 10A7 (hamster anti-murine TIGIT monoclonal antibody) (antibody, V domains shown)
VH: EVQLVESGGGLTQPGKSLKLSCEASGFTFSSFTMHWVRQSPGKGLEWVAFIRSGSGIVFYADAVRGRFTISRDNAKNLLFLQMNDLKSEDTAMYYCARRPLGHNTFDSWGQGTLVTVSS
VL: DIVMTQSPSSLAVSPGEKVTMTCKSSQSLYYSGVKENLLAWYQQKPGQSPKLLIYYASIRFTGVPDRFTGSGSGTDYTLTITSVQAEDMGQYFCQQGINNPLTFGDGTKLEIKR
